According to PubChem BioAssay AID1671190 (National Center for Advancing Translational Sciences (NCATS), 2021):
“And” between values parts separate entries of the source, which are not always exact repeats. Equal entries are not always repeated. Hit rate of the full screen: of about 580,000 compounds, about 6,100 (1.1%) were called active. Inconclusive results, whose numbers are uncertain, are shown with a selection of clear calls. Calls follow the shape of the dose curve; as a rule, active = well fitted inhibition curve with a large enough effect; inconclusive = small, poorly fitted or top-dose-only effect, or another doubt; inactive = no such curve, though single readings can be large or run the other way. Potencies beside an inconclusive call are fits to weak or partial responses and may not hold up.
% is scaled to controls: 0 for no effect and ±100 for the full control effect; potency is read from the fitted curve at half-maximal effect.

Chains of the proteins cited; added tags and fusions are not shown. Lines headed by an entry give the natural chain unless they say otherwise; changes in a name come on top.
UniProt P18054: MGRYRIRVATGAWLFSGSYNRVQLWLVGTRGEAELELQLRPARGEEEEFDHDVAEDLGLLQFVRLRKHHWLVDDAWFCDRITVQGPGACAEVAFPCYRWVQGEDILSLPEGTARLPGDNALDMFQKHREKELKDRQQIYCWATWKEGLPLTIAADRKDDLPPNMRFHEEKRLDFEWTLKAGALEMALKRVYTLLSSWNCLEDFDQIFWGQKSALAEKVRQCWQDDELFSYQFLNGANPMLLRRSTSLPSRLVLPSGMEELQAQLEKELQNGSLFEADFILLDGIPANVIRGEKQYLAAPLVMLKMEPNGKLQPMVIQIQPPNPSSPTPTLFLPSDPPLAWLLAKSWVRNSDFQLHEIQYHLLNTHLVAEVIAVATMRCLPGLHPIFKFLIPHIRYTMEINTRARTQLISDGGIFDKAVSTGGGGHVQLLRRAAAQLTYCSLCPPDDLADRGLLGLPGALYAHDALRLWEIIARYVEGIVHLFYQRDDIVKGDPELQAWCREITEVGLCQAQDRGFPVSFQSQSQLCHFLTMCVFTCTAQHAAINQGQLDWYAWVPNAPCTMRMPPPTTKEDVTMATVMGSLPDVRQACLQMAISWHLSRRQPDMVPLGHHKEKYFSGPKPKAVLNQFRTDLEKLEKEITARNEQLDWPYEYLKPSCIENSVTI

Each compound was assayed against Polyunsaturated fatty acid lipoxygenase ALOX12 (Homo sapiens) (UniProt P18054) (assay: Primary qHTS assay for inhibitors of human arachidonate 12S-lipoxygenase (ALOX12): Round 2). Settings: purified 12hLO, xylenol orange hydroperoxide absorbance; activity change, negative = inhibition: at 108 µM (top of the series) unless noted.
Summary of the method: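 Hydroperoxide product was detected by ferrous iron/xylenol orange as the 573 to 405 nm absorbance ratio. Arachidonic acid at 40 uM (final) was turned over for 30 min at room temperature by 150 nM human 12hLO, pH 7.0 Hepes buffer, after 15 min compound preincubation.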
In the case of `CCOc1ccc(C(=O)N(Cc2cccc(Cl)c2)c2ccccn2)cc1`, the “activity change, negative = inhibition” value is reported as inactive: 6.86%. For `CCc1ccc2[nH]c(C)c(CC(=O)NCc3ccc(C)o3)c2c1`, the Potency was inconclusive: 50.1 µM [inhibitor, partial curve, poor fit]. `COc1cc2c(C#CCCCO)c(-c3ccsc3)oc(=O)c2cc1OC` was tested, and the Potency was inconclusive: 50.1 µM [inhibitor, partial curve, poor fit]. `Cc1nnc(NC(=O)c2cc(-c3cccc(C)c3O)n[nH]2)s1` was tested, and the “activity change, negative = inhibition” value was inactive: 5.6%. In the case of `NC(=O)c1c(/N=C/c2cccnc2)sc2c1CCCC2`, the Potency is reported as inconclusive: 39.8 µM [inhibitor, partial curve, poor fit]. With `CCOc1ccc(Cl)cc1CNCc1cccnc1` the Potency was inconclusive: 39.8 µM [inhibitor, partial curve, poor fit]. `CCOc1cccc(CN2CCC3(Cc4ccccc4CNC3=O)C2)c1` (stereo not drawn) was tested, and the Potency was inconclusive: 31.6 µM [inhibitor, full curve]. For `O=C(CN1C(=O)CCc2cc(Br)ccc21)Nc1ccc(OC(F)(F)F)cc1`, the Potency was inconclusive: 79.4 µM [inhibitor, partial curve, poor fit]. For `O=C(CCC(=O)c1cccs1)Nc1cccc(N2CCCC2=O)c1`, the Potency was inconclusive: 39.8 µM [inhibitor, partial curve, poor fit]. With `O=C(C[C@@H]1O[C@H](CNC(=O)c2cccc(F)c2)[C@@H](O)[C@H]1O)NC1CC1` the Potency was inconclusive: 22.4 µM [inhibitor, full curve]. For `CN(C)CCCN(C(=O)c1ccc2ccccc2c1)c1nc2cc3c(cc2s1)OCO3`, the Potency was inconclusive: 112 µM [inhibitor, single point]. In the case of `COCCCNc1oc(-c2ccccc2Cl)nc1C#N`, the Potency is reported as inconclusive: 44.7 µM [inhibitor, partial curve] and inconclusive: 31.6 µM [inhibitor, partial curve, poor fit]. For `Clc1ccc(-c2c[n+](Cc3ccc(Cl)cc3Cl)c3n2CCCCC3)cc1`, the Potency was inconclusive: 35.5 µM [inhibitor, partial curve, poor fit]. `O=C(Cc1ccsc1)NCc1cccs1` was tested, and the Potency was inconclusive: 44.7 µM [inhibitor, partial curve, poor fit]. In the case of `O=C(CSc1nc2c(sc3ccccc32)c(=O)n1CCc1ccccc1)NCc1ccco1`, the “activity change, negative = inhibition” value is reported as inactive: 0%. For `O=c1[nH]nc(Sc2ncc([N+](=O)[O-])s2)n1-c1ccc2c(c1)OCCO2`, the “activity change, negative = inhibition” value was inactive: -24.6% [at 57.4 µM]. With `O=C(NC(=S)N1CCN(c2ccc(Cl)cc2[N+](=O)[O-])CC1)c1ccco1` the “activity change, negative = inhibition” value was inactive: -11.6%. For `CN(CC(=O)Nc1ccc(Cl)c(C(F)(F)F)c1)C(=O)c1ccc(N2CCOCC2)c([N+](=O)[O-])c1`, the Potency was inconclusive: 100 µM [inhibitor, single point].
